Laboratory results taken from article PMC11456535, “Receptor activity-modifying protein modulation of parathyroid hormone-1 receptor function and signaling” (Frontiers in Pharmacology, 2024).
No constants are given. Whether binding was seen depends on the method and setting. Binding seen in cells or lysates may run through a third protein. Some entries that bind do so weakly or less than the wild type.

By UniProt entry, the sequences of proteins in these tests, tags left out. Residues count along the entry.
UniProt Q03431, residues 27-593: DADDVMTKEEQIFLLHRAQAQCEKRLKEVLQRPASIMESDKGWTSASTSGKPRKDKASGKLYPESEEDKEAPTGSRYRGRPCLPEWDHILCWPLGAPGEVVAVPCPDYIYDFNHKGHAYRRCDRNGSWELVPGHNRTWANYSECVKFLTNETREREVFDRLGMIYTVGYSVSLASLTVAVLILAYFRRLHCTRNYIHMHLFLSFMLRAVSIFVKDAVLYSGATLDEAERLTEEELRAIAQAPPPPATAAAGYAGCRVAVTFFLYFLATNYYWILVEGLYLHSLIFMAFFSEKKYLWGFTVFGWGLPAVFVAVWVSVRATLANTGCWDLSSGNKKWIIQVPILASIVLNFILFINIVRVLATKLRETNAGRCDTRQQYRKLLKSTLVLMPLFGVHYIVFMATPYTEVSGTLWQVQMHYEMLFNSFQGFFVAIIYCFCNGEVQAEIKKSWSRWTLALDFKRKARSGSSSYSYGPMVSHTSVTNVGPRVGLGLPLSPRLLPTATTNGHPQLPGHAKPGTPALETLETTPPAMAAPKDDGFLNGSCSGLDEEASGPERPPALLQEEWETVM
UniProt P32121: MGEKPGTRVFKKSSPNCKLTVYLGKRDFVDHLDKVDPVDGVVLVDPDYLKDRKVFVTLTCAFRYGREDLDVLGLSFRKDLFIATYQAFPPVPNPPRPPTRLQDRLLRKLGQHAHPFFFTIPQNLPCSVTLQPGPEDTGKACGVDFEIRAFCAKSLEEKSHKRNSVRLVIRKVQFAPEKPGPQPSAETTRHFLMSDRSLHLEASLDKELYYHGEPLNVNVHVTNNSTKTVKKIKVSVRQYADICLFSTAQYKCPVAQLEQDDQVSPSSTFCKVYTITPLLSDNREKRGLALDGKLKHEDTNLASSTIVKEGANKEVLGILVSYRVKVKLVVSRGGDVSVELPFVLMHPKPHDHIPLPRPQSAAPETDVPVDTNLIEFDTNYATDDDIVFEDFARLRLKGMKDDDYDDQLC
UniProt O60894, residues 27-148: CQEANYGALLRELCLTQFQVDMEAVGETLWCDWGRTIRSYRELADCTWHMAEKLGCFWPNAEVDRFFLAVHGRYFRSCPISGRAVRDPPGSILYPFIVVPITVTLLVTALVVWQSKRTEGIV

Assays:
[1] = target: PTH1R of the PathHunter CHO-K1 PTH1R β-arrestin cell line (UniProt Q03431); test: split reporter; PathHunter Detection Kit, CHO-K1 PTH1R β-arrestin cells (mock or stably expressing RAMP2), peptide agonists 90 min at RT, chemiluminescence
[2] = target: PTH1R of the PathHunter CHO-K1 PTH1R β-arrestin cell line (UniProt Q03431); test: condition: only in cells stably co-expressing RAMP3; split reporter; PathHunter Detection Kit, CHO-K1 PTH1R β-arrestin cells stably expressing RAMP3, peptide agonists 90 min at RT, chemiluminescence
[3] = target: parathyroid hormone 1 receptor, C-tagged Citrine PTH1R (human) (UniProt Q03431); test: FRET or BRET; sensitized-emission FRET imaging at the cell surface (50-pixel membrane ROIs) of fixed COS-7 cells co-transfected with C-tagged Citrine PTH1R (acceptor) and C-tagged Cerulean RAMP (donor); NFRET as % of a Cerulean-Citrine fusion; FRET-based stoichiometric analysis (Hoppe et al., 2002)

Row | Substance | binding [1] | binding [2] | binding [3]
1 | β-arrestin (β-arrestin-2 isoform) of the PathHunter CHO-K1 PTH1R β-arrestin cell line (from UniProt P32121 1-409) | binds | no binding | –
2 | receptor activity-modifying protein 1, C-tagged Cerulean RAMP1 (from UniProt O60894 27-148) | – | – | no binding
